Measurements reported in publication PMC3641059.
Results are given in words; binding and its absence hold for the method and conditions named. Some entries that bind do so weakly or less than the wild type. Tags and fused reporters may be left off the sequences shown.

The chains behind the UniProt entries cited, without tags or fusion partners.
UniProt P19658: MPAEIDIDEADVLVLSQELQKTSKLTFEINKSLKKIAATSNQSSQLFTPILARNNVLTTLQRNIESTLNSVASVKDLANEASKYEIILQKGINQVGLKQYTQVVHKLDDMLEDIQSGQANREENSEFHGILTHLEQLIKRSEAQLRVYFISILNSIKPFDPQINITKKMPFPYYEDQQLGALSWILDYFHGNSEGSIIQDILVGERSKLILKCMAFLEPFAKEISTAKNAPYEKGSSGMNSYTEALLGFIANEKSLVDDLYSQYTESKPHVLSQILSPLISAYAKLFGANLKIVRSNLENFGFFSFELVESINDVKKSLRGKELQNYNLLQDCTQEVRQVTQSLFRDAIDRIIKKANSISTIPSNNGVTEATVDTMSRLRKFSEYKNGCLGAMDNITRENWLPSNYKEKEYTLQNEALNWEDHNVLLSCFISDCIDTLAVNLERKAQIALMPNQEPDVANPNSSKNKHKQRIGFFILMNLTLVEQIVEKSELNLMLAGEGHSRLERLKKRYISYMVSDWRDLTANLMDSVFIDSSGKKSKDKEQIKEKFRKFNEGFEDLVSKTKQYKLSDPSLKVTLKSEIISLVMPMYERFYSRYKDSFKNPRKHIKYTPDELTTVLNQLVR
UniProt P33332: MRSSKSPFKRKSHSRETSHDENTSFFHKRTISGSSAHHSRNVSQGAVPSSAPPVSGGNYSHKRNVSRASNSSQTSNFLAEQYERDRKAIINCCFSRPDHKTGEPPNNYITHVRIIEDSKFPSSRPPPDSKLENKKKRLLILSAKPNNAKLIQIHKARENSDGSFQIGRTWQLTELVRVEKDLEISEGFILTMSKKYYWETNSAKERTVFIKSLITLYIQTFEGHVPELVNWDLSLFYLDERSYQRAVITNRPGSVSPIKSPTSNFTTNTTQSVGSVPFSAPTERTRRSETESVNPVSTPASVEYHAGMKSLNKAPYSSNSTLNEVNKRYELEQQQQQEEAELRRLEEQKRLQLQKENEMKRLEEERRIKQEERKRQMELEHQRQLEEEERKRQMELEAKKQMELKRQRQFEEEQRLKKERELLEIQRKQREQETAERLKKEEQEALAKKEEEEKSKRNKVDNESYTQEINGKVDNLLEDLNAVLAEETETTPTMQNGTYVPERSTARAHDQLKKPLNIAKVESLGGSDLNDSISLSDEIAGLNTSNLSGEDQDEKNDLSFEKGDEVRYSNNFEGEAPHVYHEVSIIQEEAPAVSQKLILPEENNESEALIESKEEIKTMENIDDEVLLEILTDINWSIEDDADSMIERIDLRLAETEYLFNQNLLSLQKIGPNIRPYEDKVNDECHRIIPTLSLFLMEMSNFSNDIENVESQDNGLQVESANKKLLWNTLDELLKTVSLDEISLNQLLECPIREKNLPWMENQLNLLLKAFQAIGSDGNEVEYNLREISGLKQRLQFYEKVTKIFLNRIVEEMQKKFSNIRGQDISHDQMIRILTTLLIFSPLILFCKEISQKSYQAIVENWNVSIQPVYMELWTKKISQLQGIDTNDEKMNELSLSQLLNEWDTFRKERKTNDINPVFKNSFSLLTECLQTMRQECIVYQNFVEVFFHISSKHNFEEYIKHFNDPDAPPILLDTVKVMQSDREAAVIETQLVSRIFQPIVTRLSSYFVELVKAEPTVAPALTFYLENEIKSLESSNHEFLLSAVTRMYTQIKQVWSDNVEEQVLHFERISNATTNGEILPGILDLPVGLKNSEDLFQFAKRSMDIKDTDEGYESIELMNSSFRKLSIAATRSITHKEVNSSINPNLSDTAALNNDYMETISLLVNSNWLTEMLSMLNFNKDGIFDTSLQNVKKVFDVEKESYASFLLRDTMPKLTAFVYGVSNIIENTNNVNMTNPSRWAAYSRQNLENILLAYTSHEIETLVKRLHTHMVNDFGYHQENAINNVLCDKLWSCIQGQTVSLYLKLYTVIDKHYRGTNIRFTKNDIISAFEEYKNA
UniProt P38261: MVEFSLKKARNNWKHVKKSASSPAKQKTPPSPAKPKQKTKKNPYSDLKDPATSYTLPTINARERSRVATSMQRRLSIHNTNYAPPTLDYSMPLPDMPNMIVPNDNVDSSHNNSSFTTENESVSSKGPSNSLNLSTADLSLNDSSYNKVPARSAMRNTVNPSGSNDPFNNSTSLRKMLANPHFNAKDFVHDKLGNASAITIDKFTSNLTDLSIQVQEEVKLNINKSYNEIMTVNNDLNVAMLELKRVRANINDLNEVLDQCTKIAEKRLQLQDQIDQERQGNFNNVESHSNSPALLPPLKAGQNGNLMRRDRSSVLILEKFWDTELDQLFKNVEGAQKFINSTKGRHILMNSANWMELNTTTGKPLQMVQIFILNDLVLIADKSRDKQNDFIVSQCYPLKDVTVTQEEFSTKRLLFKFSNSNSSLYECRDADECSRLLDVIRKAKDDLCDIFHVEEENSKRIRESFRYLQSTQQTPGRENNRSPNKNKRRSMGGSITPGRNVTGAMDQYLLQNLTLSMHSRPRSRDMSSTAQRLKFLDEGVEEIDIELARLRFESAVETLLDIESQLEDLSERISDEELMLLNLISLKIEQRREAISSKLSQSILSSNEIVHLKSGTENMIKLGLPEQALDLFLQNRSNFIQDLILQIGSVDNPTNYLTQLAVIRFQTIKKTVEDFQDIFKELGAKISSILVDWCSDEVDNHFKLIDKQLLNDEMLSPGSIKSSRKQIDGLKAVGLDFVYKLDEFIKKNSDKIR

B1: Sec6-GFP (protein, UniProt P32844 1-805)
chain: MSSDPLQQVCDLIKGDLSLERVRDIKEQLLKEKSVVEYQLNKESDKYYGEVEESLKLLNLSKNSVTSIKQQINEVNKLGNDNRFAINRYDILFRATKLYETVNTTSSIYDRIYNFVALMEHIERLLVAELAEDALETGCPHLLEIHFLLTSARDFQEQVVVMAKEATEDAQRTVMKLFSRLSGIISKFDKLLDGLTYDIVEMARAEQISLAIRLFKIYDLEEREDLRIEAIRNIIKKKEIEIEKSSIKKLPNSKNTARLQDETPKVIEYPTNKGLYQEIMSGTISTRTAPRGYKHFLINGINNSISEMFGEMREKYVGDQKFDVLDNMDWIFNELIIVKEHIANCCPPHWNIFEVYFDQYYKELHSLITDLVESEPETIIILDILAFDKTFQDTLKQDFGFTKSEVKSVIGDKEKETLFKDYLNLIVVKMTEWIGNLEKAEFDVFLERSTPPHSDSDGLLFLDGTKTCFQMFTQQVEVAAGTNQAKILVGVVERFSDLLTKRQKNWISKISEEIKKQINYNHKYDIDPESITPEDECPGGLVEYLIAVSNDQMKAADYAVAISSKYGKLVSKVYEKQITNHLEGTLDGFAEVAQCSSLGLITLMFDDLRKPYQEIFSKTWYMGSQAQQIADTLDEYLLDIKPQMNSVLFVNFIDNVIGETIIKFLTALSFEHSFKNKNNKFLEAMKRDFEIFYQLFVKVLDGNESKDTLITQNFTVMEFFMDLSCEPIDSILDIWQKYLEVYWDSRIDLLVGILKCRKDVSSSERKKIVQQATEMLHEYRRNMEANGVDREPTLMRRFVLEFEKQ
B2: Sec8-GFP (protein, UniProt P32855 1-1065)
chain: MDYLKPAQKGRRRGLSINSLSETQQSAMNSSLDHLQNDLNRINLQWNRILSDNTNPLELALAFLDDTSVGLGHRYEEFNQLKSQIGSHLQDVVNEHSQVFNTNVASYGKAVSSIMQAQEQTLNLKNCLKEANEKITTDKGSLQELNDNNLKYTKMIDVLVNIEELLQIPEKIEENIRKENFHQVQILLERGFILMNNKSLKTVEILKPINQQLELQEHLLFNNLIEEIHDIMYSKSNKTNFTRVTNNDIFKIISISHNGFTSLENYLYNIVNIDIMEHSKTINKNLEQFIHDQSLNKGNIMLQENAATQAPLAPSRNQENEGFNRIGFLLKTINNINKLPVAFNIITERAKEEIHNIIVKSTESIRSKHPSLLKMATSLKNDNHFGLPVQDILSIILRECFWEIFLKLLYAIQCHRAIFEMSNILQPTSSAKPAFKFNKIWGKLLDEIELLLVRYINDPELISSNNGSIKPINGATNNAPTLPKRKNPKIFSLEYNIEDNSSVKDQAFELKALLKDIFPGFSVSSNMDLDSIYVKDESFEQDEPLVPPSVFNMKVILDPFLLFTQSTSTIVPSVLTQNTISSLTFFDDYMNKSFLPKIQMTMDYLFTVEVESNNPYALELSDENHNIFKTALDFQRLFYNLLNVFNTANTFREKISYCILDLLNHFYNYYLGLFNSLIGTSDRHLTRKIITAWLQNGILMDQEQKILNGDETLFHEESIELFKEIPHFYQAGKGLSKSDLFNNLTLDTILQFSASVLWILNWLPGLKKAINIDEVSQEPMLDADRLRSSWTFSESMDLNYSNPSSSPNSLGNLKILLDDKASKKFDETIDGFKTLKFKLITILRFNIRALCIYDIGSFFQNTKIWNMDVGSIELDQNIASLISELRRTESKLKQQLPEKEKNSIFIGLDIVNNYALIKGAKSIKVLNHNGIKKMLRNVNVLQHAYRNLSSEPSKINMNVTMNFYSLCGSSEAELFEYIKDNELPHCSVEDLKTILRLQFSEEMHRQLKRQSTSSTKGSIKPSNKRYTEALEKLSNLEKEQSKEGARTKIGKLKSKLNAVHTANEK
B3: Sec15-GFP (protein, UniProt P22224 1-910)
chain: MDQEGQPLLSKDFQQVLLATASGNNSSWTERAVLNNESTDAVKHEPALGQNDVFDLDPLSFDKWVPFLRRALDKNQLDPVIDELENSIEDNFQGLELQLLQDSQMNDKLETSIDEIANIQGMVQDTLSSEISKFQIRLSESANELIVKKQMYVNNKKISLKISEATILITKVVRILELSSKCQELITERKFFKVLQNLDSLEKLYLQEFKNYNFQFLIEIYNSIPFLQKVTKDECINLIRNSLNLNLGKNLIKVGQEFVAIYENELLPQWLETRSKMKLTNFKFNSPIEISMRDESFLAKLNLGEFFQLDDFHDSIMIFQNLNELSVLSGEFNKEYELRKTKLMYPLIWKKNKTAAYQMDSLLRGTGTTPGSTAHDVSTDDPFTQSLSLHFLQDYFLKILGFLLYDINLNKATEFILVDNNYNSTNEFWDGLMDRLSPYLSYFIDEKLKTEEDMIKLKDFLCIYVAILENFKLNIEPLYKILVSIFEKFCSVSLRAFDDEFQILLNDDDFMPLSINDKTLYEKVLKICWMKEGEHLSLPDPTNGEPFAVTLPFSPLYPMTCTLAKKTYSKITAFLSIFYRHELHTLNNILVKTMDDIFNDIVNKKIRSKLESTSREEIAQILVNLDYFIIAAKEFSNFMTRENILQNPDMEIRLSSIKYLAESRKLAETKLIELIDSKISDILETIEIDWQITEVRQDPDISIIDLAQFLEMMFASTLQNLPYSVQTLLIFREFDSLTRQFMGLLLHDTPSTITHESIMNFEVDVNYLESIIPRIFPSTPGTIDSNGYQSPMTPSTPTFPNANGVDAPTLFENNIKSLEATFMELKQCIELLKTQGKDYNEPEIRLRKYSRIRQEDAALLLSKIQHFVSSVEGANGDDTSVMDSSSIFNSESASVIDSNTSRIAKFFNRR
B4: Sec5-GFP (protein, UniProt P89102 1-971)
chain: MDRFQIGDEQLLRFYQLKTINPTHSWAQDSSKLNNEEATSNELGVETSFDILKDFKYGNQISIDKESRAYLNDESLSYIRDPLNGQEMSKELQHLPNDSMRLNYLVNSKQFNVKAFLRDMHKQDSFNDLNNSLDRLDSDIQDQSIHLKQLVGKNFTKYVKIKNKLDQIYKEFDEKTNEKNQCDSPKENQINVESLNKKVDEVIRTTTFKLKPLMDNYQKILNYQATKKFIELNKFYFNLPKSLKRCLTNNDFNEFIIEYSKGLTLRRRFNQSSDASQSLVIKRIWTQIENLLVTYKDLIWNSLINSNFNIDQPQETILSLFSKLLNLENFINNNQRESESGNKNTTSSSNENPILRWMSIKMNGFQNELNELSGHMISKIIHSQRLILQNNTNQDKSQGCVELSYYLKINQLFQIISDTGKDSEGLKSTVEPNKVNTISGTSYLNLNCQPSSQGLTDSPTIIEMWLLILKYINDLWKICDQFIEFWEHIEKFLDGTYQNSIINEKRKENILIGDSNIIESYQKSLILKEEQINEVRLKGEEFITSVSQNLISFFTSSQSSLPSSLKDSTGDITRSNKDSGSPLDYGFIPPNCNGLSCLRYLPKIVEPILKFSTELAQLNITTNGITICRNTLSTIINRCVGAISSTKLRDISNFYQLENWQVYETVTFSSKSQDSSKNLTFEYGVTQFPEIVTSFQEVSIKTTRDLLFAYEKLPIINGISVVSYPSKQLLTGIEIQQIISMEAVLEAILKNAAKDKDNPRNSHTILTLTNLQYFRECAFPNILQYFDDAFEWNLASKNLELFSLLSKMESSIFGNYLSDLKINLRDTLEEKFHEINWPMYTSNSFRVGDYIIEALMILIVVHSECFRIGPQLIHKILIETQIFIARYLFEAFKPYVGNLSNDGSLQIIVDLEFFQKVMGPLLEKDTEATLRACLQNCFQNDTNRLQKCINEINPIVSANLKRTAIQFAAFS

Biological target: Exo70-FRB (S. cerevisiae) (UniProt P19658)
Assay: automated PICT screen (co-translocation, automated live-cell imaging); living S. cerevisiae, anchor Pil1-RFP-FKBP, bait Exo70-FRB, 227 C-terminally GFP-tagged prey strains in 96 well plates; vehicle (DMSO) or 10 µM rapamycin for 15-60 min; nine fields of view; ratio of the area of colocalisation with and without rapamycin, one-tailed t-test (p<0.02), and visual inspection

Molecule | binding
Sec3-GFP (from UniProt P33332 1-1336) | binds
Exo84-GFP (from UniProt P38261 1-753) | binds
B1 | binds
B2 | binds
B3 | binds
B4 | binds
